# Results of single-concentration screens

Protein sequences, listed by entry. Tags and fused reporters are not part of them. Residues count along the entry.
UniProt I6X8D2, whole entry: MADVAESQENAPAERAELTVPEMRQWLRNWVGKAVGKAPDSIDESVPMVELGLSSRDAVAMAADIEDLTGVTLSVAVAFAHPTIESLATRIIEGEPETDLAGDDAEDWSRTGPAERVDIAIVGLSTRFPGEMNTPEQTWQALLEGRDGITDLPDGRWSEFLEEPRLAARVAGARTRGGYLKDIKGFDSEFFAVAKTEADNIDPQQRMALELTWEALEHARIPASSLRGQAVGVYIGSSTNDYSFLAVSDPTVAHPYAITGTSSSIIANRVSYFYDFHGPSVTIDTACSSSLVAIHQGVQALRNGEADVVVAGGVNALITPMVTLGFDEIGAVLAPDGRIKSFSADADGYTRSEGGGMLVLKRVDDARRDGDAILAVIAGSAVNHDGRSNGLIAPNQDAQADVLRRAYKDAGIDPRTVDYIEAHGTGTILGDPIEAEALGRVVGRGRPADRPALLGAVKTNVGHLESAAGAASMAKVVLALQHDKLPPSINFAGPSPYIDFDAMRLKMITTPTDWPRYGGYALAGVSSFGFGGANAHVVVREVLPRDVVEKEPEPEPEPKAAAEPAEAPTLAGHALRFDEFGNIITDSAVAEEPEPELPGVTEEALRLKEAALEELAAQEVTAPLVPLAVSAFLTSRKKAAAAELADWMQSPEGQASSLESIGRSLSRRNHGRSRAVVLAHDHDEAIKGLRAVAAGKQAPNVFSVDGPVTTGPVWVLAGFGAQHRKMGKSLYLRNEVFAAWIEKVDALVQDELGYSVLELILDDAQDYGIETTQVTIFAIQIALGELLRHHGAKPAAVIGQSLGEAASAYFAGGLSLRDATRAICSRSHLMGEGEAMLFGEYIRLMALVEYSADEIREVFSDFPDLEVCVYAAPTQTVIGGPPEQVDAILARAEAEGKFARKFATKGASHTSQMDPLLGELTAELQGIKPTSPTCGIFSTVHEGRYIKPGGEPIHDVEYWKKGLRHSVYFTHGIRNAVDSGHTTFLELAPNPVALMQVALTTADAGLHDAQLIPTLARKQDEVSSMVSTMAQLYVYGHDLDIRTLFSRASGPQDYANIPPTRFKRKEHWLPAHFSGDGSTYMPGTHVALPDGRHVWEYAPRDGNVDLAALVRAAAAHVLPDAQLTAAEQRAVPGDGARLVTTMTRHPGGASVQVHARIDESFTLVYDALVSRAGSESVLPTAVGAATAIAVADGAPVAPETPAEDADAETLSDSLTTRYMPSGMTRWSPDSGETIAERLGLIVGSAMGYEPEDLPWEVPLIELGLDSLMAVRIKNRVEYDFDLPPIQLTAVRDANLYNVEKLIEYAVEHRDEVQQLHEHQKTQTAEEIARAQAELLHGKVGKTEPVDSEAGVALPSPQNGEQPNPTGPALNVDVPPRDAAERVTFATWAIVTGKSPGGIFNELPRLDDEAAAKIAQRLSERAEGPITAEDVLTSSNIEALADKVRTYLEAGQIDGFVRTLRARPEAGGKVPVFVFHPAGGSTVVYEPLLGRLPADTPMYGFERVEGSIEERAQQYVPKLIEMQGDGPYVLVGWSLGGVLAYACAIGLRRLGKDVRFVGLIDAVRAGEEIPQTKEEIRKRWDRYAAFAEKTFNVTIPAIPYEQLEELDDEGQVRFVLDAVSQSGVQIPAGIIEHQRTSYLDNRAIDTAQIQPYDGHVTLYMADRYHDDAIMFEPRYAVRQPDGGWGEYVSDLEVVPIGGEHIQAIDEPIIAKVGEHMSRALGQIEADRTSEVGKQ
UniProt Q8IDJ8, 1-583: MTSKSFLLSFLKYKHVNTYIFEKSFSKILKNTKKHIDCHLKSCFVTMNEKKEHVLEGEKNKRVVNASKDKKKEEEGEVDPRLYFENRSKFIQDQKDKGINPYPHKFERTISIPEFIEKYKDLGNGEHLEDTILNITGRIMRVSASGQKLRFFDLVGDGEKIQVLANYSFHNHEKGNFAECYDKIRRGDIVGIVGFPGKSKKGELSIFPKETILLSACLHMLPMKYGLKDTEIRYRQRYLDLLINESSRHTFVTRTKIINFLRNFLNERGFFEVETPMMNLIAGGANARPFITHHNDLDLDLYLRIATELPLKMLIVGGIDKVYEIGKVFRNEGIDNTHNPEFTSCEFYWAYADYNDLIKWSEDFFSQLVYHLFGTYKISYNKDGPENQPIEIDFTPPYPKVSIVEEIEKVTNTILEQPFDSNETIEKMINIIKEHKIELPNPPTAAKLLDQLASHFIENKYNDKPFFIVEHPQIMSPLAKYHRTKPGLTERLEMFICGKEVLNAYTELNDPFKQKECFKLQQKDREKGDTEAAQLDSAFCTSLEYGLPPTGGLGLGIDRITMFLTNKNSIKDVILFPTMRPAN
UniProt P9WNZ1, whole entry: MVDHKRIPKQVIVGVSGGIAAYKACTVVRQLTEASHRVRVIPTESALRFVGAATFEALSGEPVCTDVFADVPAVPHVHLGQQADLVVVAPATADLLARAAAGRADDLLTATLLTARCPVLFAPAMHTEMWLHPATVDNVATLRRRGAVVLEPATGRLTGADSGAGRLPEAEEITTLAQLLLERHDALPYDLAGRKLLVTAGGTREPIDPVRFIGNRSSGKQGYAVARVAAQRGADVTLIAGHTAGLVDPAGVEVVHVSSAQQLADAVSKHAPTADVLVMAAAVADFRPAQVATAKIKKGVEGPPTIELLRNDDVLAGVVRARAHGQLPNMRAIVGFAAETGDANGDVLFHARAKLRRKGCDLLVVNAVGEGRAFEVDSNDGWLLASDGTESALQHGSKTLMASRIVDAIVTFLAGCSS

Measurements from “University of Dundee, Small-Polar-MMV Screening Library” (2021), ChEMBL document CHEMBL3988442.

A: 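Assay of Toxoplasma gondii numbers, read through their beta-galactosidase reporter with a colour substrate. Concentration: 10 µM. Higher reads as fewer parasites (inferred from which compounds were picked for retests). Size under these conditions: about 67,000 compounds, about 260 of them at 50% or above in at least one test.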
B: 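Enzyme assay of the thioesterase domain of polyketide synthase 13; the read-out is not stated. Target: Polyketide synthase Pks13, Mycobacterium tuberculosis (UniProt I6X8D2). Tested at 30 µM. The record gives no direction; the compounds picked for IC50 retests had high values, so higher reads as stronger inhibition. Size under these conditions: about 67,000 compounds, about 300 of them at 50% or above in at least one test.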
C: 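Lysine-tRNA ligase, Plasmodium falciparum 3D7 (UniProt Q8IDJ8). Enzyme assay of the cytosolic lysyl-tRNA synthetase in 384-well plates, read by luminescence. Compounds at 30 µM. Higher reads as stronger inhibition, judged from the few compounds that gave an IC50. Size under these conditions: about 69,000 compounds, about 49 of them at 50% or above in at least one test.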
D: 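Coenzyme A biosynthesis protein CoaBC, Mycobacterium tuberculosis (UniProt P9WNZ1). Enzyme assay of CoaBC with a phosphate dye (Biomol Green) read at 650 nm. Tested at 30 µM. Higher reads as stronger inhibition, judged from the few compounds that gave an IC50. Most strong results did not repeat in a second test. Size under these conditions: about 67,000 compounds, about 40 of them at 50% or above in at least one test.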

Results are given as percent effect. The controls that fix the scale are not given in the record; negative values are as filed. The compounds are a random part of those screened.

CC(O)CC(C)(C)CNC(=O)NCc1cccc(-n2cncn2)c1 (stereo not drawn) gave A: 0.1595%; B: -4.657%; C: -3.168%; D: 2.203%.
CCC[C@H]1CN(S(C)(=O)=O)C[C@@H]1NC(=O)Cc1ccc(F)cc1C gave A: 1.849%; B: -7.303%; C: -1.121%; D: -0.8631%.
Cc1cc(C(=O)NC(C)Cc2ccc(N(C)C)cc2)n(C)n1 (stereo not drawn) gave A: -18.21%; B: -25.02%; C: 6.601%; D: 3.145%.
CC(NC(=O)CCc1cccs1)c1nnc2n1CCCCC2 (stereo not drawn) gave A: 3.083%; B: -17.48%; C: 0.06128%; D: -12.72%.
COc1ccc2c(c1)CN(CC1CC1)C(=O)CCN2CC(C)(C)O gave A: 2.574%; B: 4.154%; C: 2.295%; D: -2.577%.
CCn1cncc1Cn1cccc(C(F)(F)F)c1=O gave A: -7.465%; B: -20.87%; C: -2.222%; D: 2.101%.
CCC(O)CN(C)Cc1nnc2ccccn12 (stereo not drawn) gave A: -8.241%; B: -23.96%; C: -4.781%; D: 3.629%.
O=C(O)C(F)(F)F.O=C(c1ccco1)N1CCCC2(CN(Cc3cccs3)CCO2)C1 (stereo not drawn) gave A: 1.97%.
Cc1cnc(C)c(Oc2ccc(Cl)c(CN3CCCC3)c2Cl)n1 gave A: 15.16%; B: -18.04%; C: 4.238%; D: 5.302%.
CC(=O)Nc1nc(C(=O)NC(C)c2ccc(F)cc2)cs1 (stereo not drawn) gave A: -2.422%; B: -25.07%; C: 0.7565%; D: 7.436%.
Cn1cccc1C(=O)N1C[C@H]2CN(Cc3cccc(F)c3)C[C@H]2C1 gave B: -25.9%; C: 0.5748%; D: 2.96%.
CC(C)n1cnnc1CNC(=O)c1cnn(Cc2ccccc2)c1 gave A: 6.916%; B: -26.87%; C: 0.2767%; D: 2.232%.
O=C(O)c1nnn(Cc2cccc(C(F)(F)F)c2)c1-c1cccnc1 gave A: -8.607%; B: -18.31%; C: 2.041%; D: 16.29%.
O=C(NCCO)NC(c1ccccc1)c1ccc2c(c1)CCCO2 (stereo not drawn) gave A: 8.623%; B: -32.96%; C: 2.558%; D: -12.43%.
O=C(O)C1CN(c2cncc(Cc3ccccc3)n2)C1 gave A: 10.3%; B: 24.74%; C: 2.319%; D: 1.84%.
Cc1cccc2c1OCCC2NCc1c(C)nn(C)c1N(C)C (stereo not drawn) gave A: -32.6%; B: 0.1869%; C: -5.76%; D: -0.266%.
COc1ccccc1S(=O)(=O)N1CCN(C)[C@@H]2CS(=O)(=O)C[C@@H]21 gave B: -19.34%; C: -4.967%; D: 0%.
COCCN1C(=O)CCC12CCCN(Cc1ccccc1F)C2 (stereo not drawn) gave B: -21.71%; C: 1.377%; D: 2.036%.
COc1cc(N2CCC3(CCN(Cc4nccs4)CC3)C2)ncn1 gave B: -8.91%; C: 3.357%; D: 4.208%.
CC(SCCNS(=O)(=O)c1cnn(C)c1)c1cccs1 (stereo not drawn) gave A: 5.128%; B: -19.72%; C: -2.649%; D: 3.512%.
Cn1cc(N2CCC(NC(=O)c3c(F)cccc3F)C2=O)cn1 (stereo not drawn) gave A: -0.1595%; B: -8.143%; C: 1.011%; D: 0%.
[H][C@]12CCN(Cc3nccs3)[C@@]1([H])C[C@H](C(=O)N1CCN(C)CC1)O2 gave A: 8.739%.
CCCc1cc(CNC2CCN(c3nc(C)cc(C)n3)CC2)on1 gave A: 6.081%; B: -9.602%; C: 1.145%; D: 3.471%.
CCCN(CC)c1ccc(C(=O)N2CCCC2c2cnn(C)c2)cn1 (stereo not drawn) gave A: -27.99%; B: -21.69%; C: 3.856%; D: 3.448%.
CC(C)(C)OCC1CN(Cc2cccs2)S(=O)(=O)c2cnccc2O1 (stereo not drawn) gave A: 9.315%; B: 7.667%; C: 1.819%; D: 0.3681%.
COc1c(C2CCCN2C(=O)c2cnc(C)cn2)c(C)nn1C (stereo not drawn) gave A: 19.77%; B: -24.61%; C: -0.4513%; D: 1.161%.
CCCc1nc(NCCc2ccccc2)c2c(n1)c(C)nn2CC gave A: 68.81%; B: -20.88%; C: 8.487%; D: 16.5%.
CCn1cnnc1CNC(=O)NC(C)c1cccs1 (stereo not drawn) gave A: 4.235%; B: -8.101%; C: 0.8231%; D: 2.41%.
[H][C@@]12CCN(Cc3c(C)noc3C)C[C@@]1([H])O[C@H](c1nccs1)C2 gave A: 0.6993%.
CC(=O)N1CCC(C)(c2nc(C)no2)CC1 gave B: -13.95%; C: -0.1889%; D: 9.501%.
CCC1(CO)CCCN(C(=O)c2ccc(N3CCN(C)CC3)cc2)C1 (stereo not drawn) gave A: 5.516%; B: -24.51%; C: 4.903%; D: 3.415%.
Cc1ccc2oc(C(=O)N3CCc4nnc(N(C)C)cc4C3)cc2n1 gave A: -2.591%; B: -13.34%; C: 2.955%; D: 11.08%.
CN(CC(O)COc1ccc(C(F)(F)F)cc1)C(=O)Nc1nncs1 (stereo not drawn) gave A: 7.278%; B: -6.732%; C: 1.011%; D: -3.269%.

The last 3 entries again:

SMILES,A,B,C,D
CCC1(CO)CCCN(C(=O)c2ccc(N3CCN(C)CC3)cc2)C1 (stereo not drawn),5.516,-24.51,4.903,3.415
Cc1ccc2oc(C(=O)N3CCc4nnc(N(C)C)cc4C3)cc2n1,-2.591,-13.34,2.955,11.08
CN(CC(O)COc1ccc(C(F)(F)F)cc1)C(=O)Nc1nncs1 (stereo not drawn),7.278,-6.732,1.011,-3.269